Results: publication PMC7835349 (Communications Biology, 2021)
This continues a long series; more values of the same kind are listed elsewhere.

Tested on: telemetered dogs
Test: Conscious dog telemetry (QRS amplitude and other cardiovascular parameters, tolerability)
[1] = 1 mg/kg 0.5h infusion, dog 502, 0 hours
[2] = 1 mg/kg 0.5h infusion, dog 502, 0.5 hours
[3] = 1 mg/kg 0.5h infusion, dog 502, 1 hours
[4] = 1 mg/kg 0.5h infusion, dog 502, 1.5 hours
[5] = 1 mg/kg 0.5h infusion, dog 502, 2 hours
[6] = 1 mg/kg 0.5h infusion, dog 502, 3 hours
[7] = 1 mg/kg 0.5h infusion, dog 502, 4 hours
[8] = 1 mg/kg 0.5h infusion, dog 502, 6 hours
[9] = 1 mg/kg 0.5h infusion, dog 502, 8 hours
[10] = 1 mg/kg 0.5h infusion, dog 502, 10 hours
[11] = 1 mg/kg 0.5h infusion, dog 502, 12 hours
[12] = 1 mg/kg 0.5h infusion, dog 502, 16 hours
[13] = 1 mg/kg 0.5h infusion, dog 502, 20 hours
[14] = 1 mg/kg 0.5h infusion, dog 502, -0.5 hours
[15] = 1 mg/kg 0.5h infusion, dog 502, -0.75 hours
[16] = 1 mg/kg 0.5h infusion, dog 502, -1 hours
[17] = 1 mg/kg 0.5h infusion, dog 502, -[…]
[18] = 1 mg/kg 0.5h infusion, dog 502, […]
[19] = 1.7 mg/kg 0.5h infusion, dog 247, 0 hours
[20] = 1.7 mg/kg 0.5h infusion, dog 247, 0.5 hours
[21] = 1.7 mg/kg 0.5h infusion, dog 247, 1 hours
[22] = 1.7 mg/kg 0.5h infusion, dog 247, 1.5 hours

In the case of CN(CCO)CCC(CSc1ccccc1)Nc1ccc(S(=O)(=O)NC(=O)c2ccc(N3CCC(C(O)c4ccccc4-c4ccc(Cl)cc4)CC3)cc2)cc1S(=O)(=O)C(F)(F)F (stereo not drawn) [AZD4320], the “ECG PR interval” value [1] is reported as 111 ms, the “ECG QRS duration” value [1] is reported as 46 ms and the “Left ventricular -dP/dt (mmHg/s)” value [1] is reported as -1645 mmHg/s. For the same molecule, the “QRS amplitude (% baseline)” value [1] was 100 % baseline, the “Systolic blood pressure (mmHg)” value [1] was 97 mmHg and the “ECG PR interval” value [2] was 109 ms. For the same molecule, the “ECG QRS duration” value [2] was 44 ms, the “Left ventricular -dP/dt (mmHg/s)” value [2] was -1552 mmHg/s and the “QRS amplitude (% baseline)” value [2] was 97 % baseline. The “Systolic blood pressure (mmHg)” value [2] was 101 mmHg, the “ECG PR interval” value [3] was 106 ms and the “ECG QRS duration” value [3] was 44 ms. For the same molecule, the “Left ventricular -dP/dt (mmHg/s)” value [3] was -1574 mmHg/s, the “QRS amplitude (% baseline)” value [3] was 92 % baseline and the “Systolic blood pressure (mmHg)” value [3] was 103 mmHg. For the same molecule, the “ECG PR interval” value [4] was 106 ms, the “ECG QRS duration” value [4] was 47 ms and the “Left ventricular -dP/dt (mmHg/s)” value [4] was -1659 mmHg/s. The “QRS amplitude (% baseline)” value [4] was 106 % baseline, the “Systolic blood pressure (mmHg)” value [4] was 109 mmHg and the “ECG PR interval” value [5] was 118 ms. The “ECG QRS duration” value [5] was 47 ms, the “Left ventricular -dP/dt (mmHg/s)” value [5] was -1718 mmHg/s and the “QRS amplitude (% baseline)” value [5] was 101 % baseline. For the same molecule, the “Systolic blood pressure (mmHg)” value [5] was 117 mmHg, the “ECG PR interval” value [6] was 107 ms and the “ECG QRS duration” value [6] was 45 ms. The “Left ventricular -dP/dt (mmHg/s)” value [6] was -1837 mmHg/s, the “QRS amplitude (% baseline)” value [6] was 57 % baseline and the “Systolic blood pressure (mmHg)” value [6] was 115 mmHg. The “ECG PR interval” value [7] was 91 ms, the “ECG QRS duration” value [7] was 44 ms and the “Left ventricular -dP/dt (mmHg/s)” value [7] was -1907 mmHg/s. For the same molecule, the “QRS amplitude (% baseline)” value [7] was 39 % baseline, the “Systolic blood pressure (mmHg)” value [7] was 113 mmHg and the “ECG PR interval” value [8] was 86 ms. The “ECG QRS duration” value [8] was 43 ms, the “Left ventricular -dP/dt (mmHg/s)” value [8] was -1585 mmHg/s and the “QRS amplitude (% baseline)” value [8] was 35 % baseline. For the same molecule, the “Systolic blood pressure (mmHg)” value [8] was 82 mmHg, the “ECG PR interval” value [9] was 89 ms and the “ECG QRS duration” value [9] was 43 ms. The “Left ventricular -dP/dt (mmHg/s)” value [9] was -1652 mmHg/s, the “QRS amplitude (% baseline)” value [9] was 46 % baseline and the “Systolic blood pressure (mmHg)” value [9] was 96 mmHg. For the same molecule, the “ECG PR interval” value [10] was 90 ms, the “ECG QRS duration” value [10] was 44 ms and the “Left ventricular -dP/dt (mmHg/s)” value [10] was -1660 mmHg/s. The “QRS amplitude (% baseline)” value [10] was 63 % baseline, the “Systolic blood pressure (mmHg)” value [10] was 94 mmHg and the “ECG PR interval” value [11] was 88 ms. For the same molecule, the “ECG QRS duration” value [11] was 45 ms, the “Left ventricular -dP/dt (mmHg/s)” value [11] was -1632 mmHg/s and the “QRS amplitude (% baseline)” value [11] was 70 % baseline. The “Systolic blood pressure (mmHg)” value [11] was 97 mmHg, the “ECG PR interval” value [12] was 94 ms and the “ECG QRS duration” value [12] was 44 ms. The “Left ventricular -dP/dt (mmHg/s)” value [12] was -1720 mmHg/s, the “QRS amplitude (% baseline)” value [12] was 77 % baseline and the “Systolic blood pressure (mmHg)” value [12] was 102 mmHg. The “ECG PR interval” value [13] was 109 ms, the “ECG QRS duration” value [13] was 46 ms and the “Left ventricular -dP/dt (mmHg/s)” value [13] was -1484 mmHg/s. For the same molecule, the “QRS amplitude (% baseline)” value [13] was 85 % baseline, the “Systolic blood pressure (mmHg)” value [13] was 107 mmHg and the “ECG PR interval” value [14] was 115 ms. The “ECG QRS duration” value [14] was 46 ms, the “Left ventricular -dP/dt (mmHg/s)” value [14] was -1549 mmHg/s and the “QRS amplitude (% baseline)” value [14] was 93 % baseline. The “Systolic blood pressure (mmHg)” value [14] was 96 mmHg, the “ECG PR interval” value [15] was 106 ms and the “ECG QRS duration” value [15] was 46 ms. For the same molecule, the “Left ventricular -dP/dt (mmHg/s)” value [15] was -1723 mmHg/s, the “QRS amplitude (% baseline)” value [15] was 102 % baseline and the “Systolic blood pressure (mmHg)” value [15] was 95 mmHg. For the same molecule, the “ECG PR interval” value [16] was 103 ms, the “ECG QRS duration” value [16] was 45 ms and the “Left ventricular -dP/dt (mmHg/s)” value [16] was -1830 mmHg/s. For the same molecule, the “QRS amplitude (% baseline)” value [16] was 98 % baseline, the “Systolic blood pressure (mmHg)” value [16] was 99 mmHg and the “ECG PR interval” value [17] was 119 ms. For the same molecule, the “ECG QRS duration” value [17] was 47 ms, the “Left ventricular -dP/dt (mmHg/s)” value [17] was -1476 mmHg/s and the “QRS amplitude (% baseline)” value [17] was 106 % baseline. For the same molecule, the “Systolic blood pressure (mmHg)” value [17] was 96 mmHg, the “ECG PR interval” value [18] was 131 ms and the “ECG QRS duration” value [18] was 46 ms. For the same molecule, the “Left ventricular -dP/dt (mmHg/s)” value [18] was -1553 mmHg/s, the “QRS amplitude (% baseline)” value [18] was 83 % baseline and the “Systolic blood pressure (mmHg)” value [18] was 104 mmHg. The “ECG PR interval” value [19] was 94 ms, the “ECG QRS duration” value [19] was 43 ms and the “Left ventricular -dP/dt (mmHg/s)” value [19] was -2286 mmHg/s. The “QRS amplitude (% baseline)” value [19] was 100 % baseline, the “Systolic blood pressure (mmHg)” value [19] was 137 mmHg and the “ECG PR interval” value [20] was 90 ms. For the same molecule, the “ECG QRS duration” value [20] was 43 ms, the “Left ventricular -dP/dt (mmHg/s)” value [20] was -2666 mmHg/s and the “QRS amplitude (% baseline)” value [20] was 96 % baseline. For the same molecule, the “Systolic blood pressure (mmHg)” value [20] was 161 mmHg, the “ECG PR interval” value [21] was 88 ms and the “ECG QRS duration” value [21] was 42 ms. For the same molecule, the “Left ventricular -dP/dt (mmHg/s)” value [21] was -2357 mmHg/s, the “QRS amplitude (% baseline)” value [21] was 81 % baseline and the “Systolic blood pressure (mmHg)” value [21] was 152 mmHg. The “ECG PR interval” value [22] was 93 ms, the “ECG QRS duration” value [22] was 42 ms and the “Left ventricular -dP/dt (mmHg/s)” value [22] was -2326 mmHg/s.
